These are yes or no findings as the source states them, for the method shown. Binding seen in cells or lysates may run through a third protein. Here binding means that the protein was enriched with, or labelled near, the bait; the list need not be complete. For part of these data: Where a sequence is shown, tags or fusion partners need not be part of it. One block for each molecule: values may come before it.
Key:
Assay in all cases: affinity purification with mass spectrometry; GFP fusion captured on GFP nanobody sepharose beads (Chromotek) from 3 mg whole cell extract in RIPA buffer (150 mM NaCl, 50 mM Tris-HCl pH 8.0) with 50 ug/ml ethidium bromide, 1.5 h 4 C; washes with 300 mM NaCl; triplicate; label-free quantification against GFP control, log2 FC > 8, FDR < 0.05
[1] = target: GFP-METTL9 (human) (UniProt Q9H1A3)
[2] = target: T1, GFP-METTL8 (human) (UniProt Q9H825)
T1 sequence: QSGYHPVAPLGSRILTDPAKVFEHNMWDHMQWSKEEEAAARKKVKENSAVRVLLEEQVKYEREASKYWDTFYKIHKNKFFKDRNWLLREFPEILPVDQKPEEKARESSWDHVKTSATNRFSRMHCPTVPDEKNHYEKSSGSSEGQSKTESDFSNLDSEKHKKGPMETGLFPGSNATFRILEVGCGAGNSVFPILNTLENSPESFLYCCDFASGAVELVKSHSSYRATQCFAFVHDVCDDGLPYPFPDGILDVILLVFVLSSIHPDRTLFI

The chains behind the UniProt entries cited, without tags or fusion partners. Residues count along the entry.
UniProt Q9H1A3, residues 19-318: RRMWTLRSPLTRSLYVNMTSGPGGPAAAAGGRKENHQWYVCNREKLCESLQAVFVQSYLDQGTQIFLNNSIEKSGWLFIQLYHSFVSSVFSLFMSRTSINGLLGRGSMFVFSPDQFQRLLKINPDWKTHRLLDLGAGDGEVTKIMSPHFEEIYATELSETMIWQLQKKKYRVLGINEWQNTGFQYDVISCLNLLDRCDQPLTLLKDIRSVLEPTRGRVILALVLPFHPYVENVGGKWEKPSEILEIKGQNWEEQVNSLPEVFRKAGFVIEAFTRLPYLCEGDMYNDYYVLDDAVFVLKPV
UniProt P27824, residues 21-592: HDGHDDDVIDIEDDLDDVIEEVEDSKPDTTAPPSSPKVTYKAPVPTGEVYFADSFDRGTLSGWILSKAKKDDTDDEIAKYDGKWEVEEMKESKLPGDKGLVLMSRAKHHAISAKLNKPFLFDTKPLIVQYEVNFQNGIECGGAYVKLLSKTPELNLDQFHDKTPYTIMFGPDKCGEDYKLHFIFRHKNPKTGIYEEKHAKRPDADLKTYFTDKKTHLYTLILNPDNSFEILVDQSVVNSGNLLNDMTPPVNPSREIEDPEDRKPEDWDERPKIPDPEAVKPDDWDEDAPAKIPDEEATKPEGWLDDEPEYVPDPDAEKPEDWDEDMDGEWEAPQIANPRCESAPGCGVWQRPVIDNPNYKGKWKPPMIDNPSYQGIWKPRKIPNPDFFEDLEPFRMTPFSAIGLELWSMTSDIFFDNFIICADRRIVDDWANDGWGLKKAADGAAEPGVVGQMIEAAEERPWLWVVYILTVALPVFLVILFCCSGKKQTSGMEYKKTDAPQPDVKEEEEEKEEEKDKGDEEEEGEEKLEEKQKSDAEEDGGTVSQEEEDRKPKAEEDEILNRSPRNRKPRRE
UniProt P13674, residues 18-534: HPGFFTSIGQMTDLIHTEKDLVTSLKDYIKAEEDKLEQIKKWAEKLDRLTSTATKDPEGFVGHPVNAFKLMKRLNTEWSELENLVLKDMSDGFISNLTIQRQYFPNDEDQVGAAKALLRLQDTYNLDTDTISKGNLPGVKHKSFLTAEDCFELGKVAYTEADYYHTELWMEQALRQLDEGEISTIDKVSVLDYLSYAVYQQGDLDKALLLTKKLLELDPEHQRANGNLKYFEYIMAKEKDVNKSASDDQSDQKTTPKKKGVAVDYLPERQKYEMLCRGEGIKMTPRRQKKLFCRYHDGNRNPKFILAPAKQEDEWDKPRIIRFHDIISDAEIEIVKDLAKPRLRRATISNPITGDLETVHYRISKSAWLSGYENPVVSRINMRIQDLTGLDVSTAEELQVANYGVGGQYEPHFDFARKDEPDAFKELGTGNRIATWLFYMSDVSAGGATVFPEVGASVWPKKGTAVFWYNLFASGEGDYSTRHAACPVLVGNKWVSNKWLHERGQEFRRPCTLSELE

[3] = target: GFP-METTL7B (human)

- binding [1]: binds
Molecule: Calnexin precursor (CANX) (from UniProt P27824 21-592)

- binding [2]: binds
Molecule: prolyl 4-Hydroxylase Subunit Alpha 1 (P4HA1) (from UniProt P13674 18-534) (enzyme)

- binding [3]: binds
B1: transmembrane protein TMEM126A (protein, UniProt Q9H061 1-195)
chain: MENHKSNNKENITIVDISRKINQLPEAERNLLENGSVYVGLNAALCGLIANSLFRRILNVTKARIAAGLPMAGIPFLTTDLTYRCFVSFPLNTGDLDCETCTITRSGLTGLVIGGLYPVFLAIPVNGGLAARYQSALLPHKGNILSYWIRTSKPVFRKMLFPILLQTMFSAYLGSEQYKLLIKALQLSEPGKEIH
